Experimental data reported in paper doi:10.1101/591974.
Results are given in words; binding and its absence hold for the method and conditions named. In cells and extracts the contact can be indirect. Some binding calls cover weakened binding; strength is not graded here. Where a sequence is shown, tags or fusion partners need not be part of it.

By UniProt entry, the sequences of proteins in these tests, tags left out. Where a name states a change or a piece, a line headed by the entry shows the natural chain unless it says otherwise.
UniProt P55258: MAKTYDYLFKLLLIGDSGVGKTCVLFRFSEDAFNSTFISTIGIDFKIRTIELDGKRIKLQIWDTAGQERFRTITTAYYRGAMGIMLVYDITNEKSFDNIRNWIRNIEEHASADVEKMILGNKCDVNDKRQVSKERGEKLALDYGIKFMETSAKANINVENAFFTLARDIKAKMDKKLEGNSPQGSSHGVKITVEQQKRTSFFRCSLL

Experiments:
Assay in all cases: pull-down
[1] = biological target: T1, GST-Hs-RAB3A-Q81L (human) (UniProt P20336)
T1 sequence: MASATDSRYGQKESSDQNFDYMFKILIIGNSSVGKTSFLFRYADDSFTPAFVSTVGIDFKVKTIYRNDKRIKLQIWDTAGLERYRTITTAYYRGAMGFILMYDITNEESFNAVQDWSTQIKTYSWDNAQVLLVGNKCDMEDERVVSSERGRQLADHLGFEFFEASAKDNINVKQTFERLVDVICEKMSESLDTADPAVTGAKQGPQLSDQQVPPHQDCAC

[2] = biological target: GST-Mm-RAB8A-Q67L (mouse) (UniProt P55258)
GST-Rn-RAB27A-Q78L (Rn) = biological target: T2, GST-Rn-RAB27A-Q78L (Rn) (UniProt P23640)
T2 sequence: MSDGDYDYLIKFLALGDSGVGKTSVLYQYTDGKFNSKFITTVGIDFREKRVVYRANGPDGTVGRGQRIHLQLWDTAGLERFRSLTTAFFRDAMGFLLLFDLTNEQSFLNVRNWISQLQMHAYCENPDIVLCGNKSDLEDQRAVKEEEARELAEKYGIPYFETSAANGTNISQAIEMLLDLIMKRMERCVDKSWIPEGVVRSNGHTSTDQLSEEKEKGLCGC

binding [1]: binds weakly
binding [2]: binds
binding (GST-Rn-RAB27A-Q78L (Rn)): binds weakly
B1: AcGFP1-tagged full-length Hs-SPIRE2 (protein, UniProt Q8WWL2 1-714)
chain: MARAGSCGGAAAGAGRPEPWELSLEEVLKAYEQPLNEEQAWAVCFQGCRGLRGSPGRRLRDTGDLLLRGDGSVGAREPEAAEPATMVVPLASSEAQTVQSLGFAIYRALDWGLDESEERELSPQLERLIDLMANNDSEDSGCGAADEGYGGPEEEEEAEGVPRSVRTFAQAMRLCAARLTDPRGAQAHYQAVCRALFVETLELRAFLARVREAKEMLQKLREDEPHLETPRAELDSLGHTDWARLWVQLMRELRRGVKLKKVQEQEFNPLPTEFQLTPFEMLMQDIRARNYKLRKVMVDGDIPPRVKKDAHELILDFIRSRPPLKQVSERRLRPLPPKQRSLHEKILEEIKQERRLRPVRGEGWAARGFGSLPCILNACSGDAKSTSCINLSVTDAGGSAQRPRPRVLLKAPTLAEMEEMNTSEEEESPCGEVTLKRDRSFSEHDLAQLRSEVASGLQSATHPPGGTEPPRPRAGSAHVWRPGSRDQGTCPASVSDPSHPLLSNRGSSGDRPEASMTPDAKHLWLEFSHPVESLALTVEEVMDVRRVLVKAEMEKFLQNKELFSSLKKGKICCCCRAKFPLFSWPPSCLFCKRAVCTSCSIKMKMPSKKFGHIPVYTLGFESPQRVSAAKTAPIQRRDIFQSLQGPQWQSVEEAFPHIYSHGCVLKDVCSECTSFVADVVRSSRKSVDVLNTTPRRSRQTQSLYIPNTRTLDFK
